Record: PubChem BioAssay AID1224826 (NIAID, 2016)
The deposit covers about 17,000 reagents; below is an unselected part. About 1,110 of them (6.6%) were called active. 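Active means lowered or raised reporter signal; replicate intensities are raw and not normalised per plate.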 Unmarked entries are inactive. Not all columns of the deposit are shown.

Screen: 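Knock-downs that raise or lower Tnf reporter signal after endotoxin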 (primary screen)
Cell system: RAW264.7 G9 macrophages from mouse bearing reporters for p65 (GFP) and the Tnf promoter (mCherry)
Knock-down reagent: siRNA pool against mouse genes, 100 nM
Duration: 16 h of LPS stimulation, after 2 days of siRNA transfection
Treatment: bacterial lipopolysaccharide (Salmonella minnesota R595), 10 ng/ml
Measured: 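Nuclear mCherry signal of the Tnf promoter reporter measured by imaging after background removal, scaled to each plate median and turned into robust z-scores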
Reading the numbers: Tnf reporter robust z-score: higher = stronger Tnf promoter reporter signal after LPS
Rule for the call: 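a well counts as active at a score of -1.3 or below (Tlr4 knock-down control median) or above 3 (raised signal); controls and wells holding fewer than 50 cells are excluded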
Meaning of the calls: active = Tnf reporter clearly lowered or raised; inactive = no clear change in Tnf reporter

Prl8a9 (prolactin family8, subfamily a, member 9) → Tnf reporter robust z-score: 0.18; fewer than 50 cells in well: enough cells in well
Ormdl1 (ORM1-like 1 (S. cerevisiae)) → Tnf reporter robust z-score: -0.22; fewer than 50 cells in well: enough cells in well
Macroh2a3 (macroH2A.3 histone) → Tnf reporter robust z-score: -1.19; fewer than 50 cells in well: enough cells in well
Pcdhb16 (protocadherin beta 16) → Tnf reporter robust z-score: -0.4; fewer than 50 cells in well: enough cells in well
Dus3l (dihydrouridine synthase 3 like) → Tnf reporter robust z-score: -0.92; fewer than 50 cells in well: enough cells in well
Ranbp2 (RAN binding protein 2) → Tnf reporter robust z-score: -0.03; fewer than 50 cells in well: enough cells in well
Gbp3 (guanylate binding protein 3) → Tnf reporter robust z-score: -0.67; fewer than 50 cells in well: enough cells in well
Stag3 (STAG3 cohesin complex component) → Tnf reporter robust z-score: 2.71; fewer than 50 cells in well: enough cells in well
Gpr15 (G protein-coupled receptor 15) → Tnf reporter robust z-score: 0.44; fewer than 50 cells in well: enough cells in well
Fcna (ficolin A) → Tnf reporter robust z-score: 0.08; fewer than 50 cells in well: enough cells in well
Arhgef15 (Rho guanine nucleotide exchange factor 15) → Tnf reporter robust z-score: 0.13; fewer than 50 cells in well: enough cells in well
Zfp598 (zinc finger protein 598) → Tnf reporter robust z-score: 3.09 (active); fewer than 50 cells in well: enough cells in well

Quoted from above for reference:
Stag3 (STAG3 cohesin complex component) → Tnf reporter robust z-score: 2.71; fewer than 50 cells in well: enough cells in well
Gpr15 (G protein-coupled receptor 15) → Tnf reporter robust z-score: 0.44; fewer than 50 cells in well: enough cells in well
